Reference: PMC4312763 (Protein & Cell, 2014)
These are yes or no findings as the source states them, for the method shown. Some results given as binding are weak or reduced against the parent protein; the word gives no strength.

Target: cytosolic domain of human ATL-1 (human) (UniProt Q8WXF7)
Test: AUC; sedimentation velocity, 4°C, protein 0.03 mmol/L, 50 mmol/L Tris pH 8.0, 5 mmol/L MgCl2, 1 mmol/L DTT, 1 mmol/L GDP; monomer to dimer; both purified

B1: cytosolic domain of human ATL-1 (domain or fragment, UniProt Q8WXF7 18-447, looked up)
chain: TYEWSSEEEEPVKKAGPVQVLIVKDDHSFELDETALNRILLSEAVRDKEVVAVSVAGAFRKGKSFLMDFMLRYMYNQESVDWVGDYNEPLTGFSWRGGSERETTGIQIWSEIFLINKPDGKKVAVLLMDTQGTFDSQSTLRDSATVFALSTMISSIQVYNLSQNVQEDDLQHLQLFTEYGRLAMEETFLKPFQSLIFLVRDWSFPYEFSYGADGGAKFLEKRLKVSGNQHEELQNVRKHIHSCFTNISCFLLPHPGLKVATNPNFDGKLKEIDDEFIKNLKILIPWLLSPESLDIKEINGNKITCRGLVEYFKAYIKIYQGEELPHPKSMLQATAEANNLAAVATAKDTYNKKMEEICGGDKPFLAPNDLQTKHLQLKEESVKLFRGVKKMGGEEFSRRYLQQLESEIDELYIQYIKHNDSKNIFHAART
  binding: binds weakly
